Source: PubChem BioAssay AID2685 (National Center for Advancing Translational Sciences (NCATS), 2010)
The other results are listed elsewhere or left out. The main result of the screen is listed elsewhere. These columns were measured beside it and carry no call. Compounds called inactive in the main read-out are mostly missing here. Potencies come from curve fits of mixed quality, noted in brackets.

Assay: qHTS Assay for Lipid Storage Modulators in Drosophila S3 Cells;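 as to cell number change: cells counted by Cell Tracker Red CMTPX staining in the red channel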
Settings: BODIPY lipid droplet fluorescence, 18-24 h; for cell number change: measured here: cell count max response, cells fed with added oleic acid
How it was run: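 Laser-scanning cytometry quantifies lipid droplet accumulation (500–530 nm total intensity; droplet/cell object ratio) in oleic acid-fed (400 uM added) Drosophila S3 cells treated with a concentration series. 20 uM Triacsin C defined 100% inhibition.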

[1] = measured here: lipid fluorescence (Fed channel) AC50, cells fed with added oleic acid
[2] = measured here: cell number channel AC50, cells fed with added oleic acid

Compound | cell number change | AC50 [1] | AC50 [2]
O=C(CSc1nnc(Cc2cc(=O)[nH]c(=O)[nH]2)n1-c1ccc(Cl)cc1)N1CCc2ccccc21 | 3.35% | 6.51 µM [rising, single point] | 
COc1ccc2c(c1)c(CCN1C(=O)c3ccccc3C1=O)cn2C(=O)c1ccco1 | -6.34% | 29.1 µM [rising, single point] | 
CCCCC(=O)Nc1nc2c(OC)ccc(OC)c2s1 | 43.1% | 10.3 µM [rising, partial curve, poor fit] | 25.9 µM [rising, single point]
Cc1ccccc1NC(=O)N1CCN(C/C=C/c2ccccc2)CC1 | -45% |  | 
O=C(Nc1ccc2c(c1)nc1n2CCN(Cc2ccccc2)C1)NC1CCCCC1 | 51.9% | 1.64 µM [rising, partial curve] | 0.291 µM [rising, full curve]
COC(=O)c1ccccc1NC(=O)c1cc[n+]([O-])cc1 | 6.57% | 4.11 µM [rising, full curve, poor fit] | 
O=c1[nH]c(SCc2cccc(Cl)c2)nc2[nH]ncc12 | -12.8% |  | 0.0058 µM [falling, full curve, poor fit]
C=CCN1C(=O)C(CC(=O)Nc2ccc(OCCC)cc2)N(CCCN2CCN(Cc3ccccc3)CC2)C1=S (stereo not drawn) | -83.6% | 20.6 µM [falling, single point] | 16.4 µM [falling, single point]
Cc1ccc(S(=O)(=O)N2CCCCC2)cc1NC(=O)CSc1nnnn1C | 9.61% | 8.2 µM [rising, partial curve, poor fit] | 
CC(C)(C)NS(=O)(=O)c1ccc(OCC(=O)NCCC2=CCCCC2)cc1 | -0.841% | 0.13 µM [falling, full curve, poor fit] | 
CC(C)Oc1cc(NC(=O)CS(=O)CC(=O)Nc2cccc(C(F)(F)F)c2)c(Cl)cc1Cl (stereo not drawn) | -79.2% | 29.1 µM [falling, single point] | 
CC(OC(=O)c1ccc(NC(=O)CC#N)cc1)C(=O)Nc1ccc(Oc2ccccc2)cc1 (stereo not drawn) |  | 29.1 µM [rising, single point] | 
O=C(c1n[nH]c2ccccc12)N1CCCCC1 |  | 0.082 µM [falling, full curve, poor fit] | 
O=C(Cc1cccs1)Nc1ccc(-c2nnc(-c3ccco3)o2)cc1 | -27% | 0.00517 µM [rising, full curve, poor fit] | 
COc1ccc(C(=O)Cn2c(C(=O)/C=C/c3ccccc3)nc3ccccc32)cc1 | -12.4% | 29.1 µM [falling, single point] | 
Cc1ccc(OCC(=O)N/N=C\c2ccncc2)c(C)c1 | 15.7% | 10.3 µM [rising, partial curve] | 
c1nnc(NC2=NCCCCC2)s1 |  | 23.1 µM [falling, partial curve, poor fit] | 0.058 µM [falling, full curve]
O=C(NCc1ccc(Cl)cc1)c1ccc(S(=O)(=O)N2CCCCC2)cc1 | 37.6% | 29.1 µM [rising, single point] | 23.1 µM [rising, single point]
O=C1C(=O)N(CCO)C(c2ccc(Br)cc2)/C1=C(\O)c1ccccc1 (stereo not drawn) | -2.36% |  | 

Looked up above:
`O=C(CSc1nnc(Cc2cc(=O)[nH]c(=O)[nH]2)n1-c1ccc(Cl)cc1)N1CCc2ccccc21` | cell number change: 3.35%
`CCCCC(=O)Nc1nc2c(OC)ccc(OC)c2s1` | AC50 [2]: 25.9 µM [rising, single point]

Next part.

Compound | cell number change | AC50 [1] | AC50 [2]
Cc1ccc(-c2nc(N/N=C/c3cccnc3)c3ccccc3n2)cc1 | 37.8% | 29.1 µM [falling, partial curve, poor fit] | 2.91 µM [rising, full curve]
CN(C(=S)NC(=O)C1(C)CC1(Cl)Cl)c1ccccc1 (stereo not drawn) | -94% | 5.8 µM [falling, partial curve] | 23.1 µM [falling, partial curve]
O=C(O)c1ccc(N=N/C(=N\Nc2ccc(C(=O)O)cc2)c2ccccc2)cc1 | -13.6% |  | 
CCCCCCC(=O)N/N=C1\CCCc2ccccc21 | -34.2% |  | 32.6 µM [falling, single point]
CCOc1ccc(NC(=O)CN(C)C(=O)c2ccc(-c3ccc(C(C)=O)cc3)o2)cc1OCC |  |  | 3.66 µM [rising, partial curve, poor fit]
CCc1ccccc1N(CC)C(=O)C1CCN(c2ncnc3c2nc2n3CCCCC2)CC1 | -9.85% | 29.1 µM [falling, single point] | 
NNc1nc2sc3c(c2c(=O)n1-c1ccccc1)CCCC3 | 9.62% | 4.11 µM [rising, partial curve, poor fit] | 
O=S(=O)(c1ccc2c(c1)nc(COc1ccc(Cl)cc1)n2CC1CCCO1)N1CCOCC1 (stereo not drawn) | 0.0646% | 0.259 µM [rising, full curve, poor fit] | 
O=c1[nH]c(NCc2ccccc2)nc2c1CCCC2 | 31.2% |  | 29.1 µM [rising, single point]
Cn1ncc(C(N)=O)c1NC(=S)NC(=O)c1ccc(Br)o1 | 18.3% | 0.00461 µM [rising, full curve, poor fit] | 0.00461 µM [rising, full curve, poor fit]
CCOc1ccc(S(=O)(=O)N(CC)CC(=O)NCc2ccncc2)cc1 | -42.9% |  | 25.9 µM [falling, single point]
COc1ccc(Sc2nc(-c3ccccc3)ncc2OC)cc1 | 30.9% |  | 6.51 µM [rising, single point]
CCN(CC)CCN(C(=O)c1ccc2ncsc2c1)c1nc2cc3c(cc2s1)OCO3 | 3.88% | 13 µM [rising, partial curve, poor fit] | 
O=C(Nc1sc2c(c1C(=O)O)CCCCC2)c1cccs1 | 57% |  | 0.00651 µM [rising, full curve, poor fit]
O=C(CN1CCN(C(=O)c2ccco2)CC1)Nc1cccc(S(=O)(=O)N2CCCC2)c1 | -11.6% | 0.517 µM [falling, partial curve, poor fit] | 
Cc1ccc(/C=N/NC(=O)CNC(=O)c2ccc(S(=O)(=O)N(C)C)cc2)cc1 | 12.8% |  | 
COc1ccc(CN2CCC(c3nc4ccc(Cl)cc4[nH]3)CC2)cc1 | 16.6% | 0.00517 µM [falling, full curve, poor fit] | 
COc1ccc(N(CC(=O)NCCSc2ccccc2)S(C)(=O)=O)cc1 | 13.7% | 29.1 µM [rising, single point] | 
CN(C)S(=O)(=O)c1cccc(NC(=O)c2cc([N+](=O)[O-])ccc2N2CCCCC2)c1 | 1.74% | 7.31 µM [rising, full curve, poor fit] | 

Compound | cell number change | AC50 [1] | AC50 [2]
Cc1nc(N2CCOCC2)[nH]c(=O)c1CCC(C)C | -7.82% | 23.1 µM [falling, single point] | 
c1ccc2c(c1)C(=NC1CCCCC1)NC2=NC1CCCCC1 | 5.98% | 29.1 µM [falling, single point] | 
CCCCCn1c(=O)[nH]c2cc(C(=O)N3CCN(Cc4ccc5c(c4)OCO5)CC3)ccc2c1=O | -34.6% |  | 1.3 µM [falling, full curve]
O=c1[nH]c(=O)n(Cc2ccccc2)c2nc(-c3cccs3)n(CCO)c12 | -47% | 16.4 µM [falling, partial curve] | 14.6 µM [falling, single point]
COC(=O)c1ccccc1NC(=O)c1cc(-c2ccco2)on1 | 18.5% | 6.51 µM [rising, single point] | 
Nc1nc(CN2CCN(Cc3ccc4c(c3)OCO4)CC2)nc(Nc2ccccc2)n1 |  |  | 0.0058 µM [rising, full curve, poor fit]
O=C(NCCc1ccccc1)c1cccc(S(=O)(=O)NCc2ccccc2)c1 |  | 18.4 µM [falling, single point] | 
CCN(c1cccc(C)c1)c1nc2ccsc2c(=O)s1 | -5.58% |  | 
COc1ccc(C(=O)NCc2ccc(Cl)c(Cl)c2)cc1OC | 48% | 1.84 µM [rising, full curve, poor fit] | 10.3 µM [rising, partial curve, poor fit]
O=C(C1CCC(=O)N(C2CCCC2)C1)N1CCC(Oc2ccccc2Cl)CC1 (stereo not drawn) | -6.45% | 29.1 µM [falling, single point] | 
O=C(Nc1nccs1)c1ccc(N2CCOCC2)c([N+](=O)[O-])c1 | -12.1% | 0.146 µM [falling, full curve] | 
CCCOc1ccc2[nH]c(C(=O)N/N=C/c3cc(OC)c(OC)c(OC)c3)cc2c1 | -32% | 14.6 µM [falling, partial curve] | 
COc1ccccc1CN(CC(=O)NCc1ccc2c(c1)OCO2)C(=O)c1csnn1 | 23.8% | 29.1 µM [rising, single point] | 
O=C(CCCN1C(=O)c2ccccc2C1=O)Oc1ccc(F)cc1 | -75.6% | 4.11 µM [falling, full curve] | 3.66 µM [falling, full curve]
CC(C)NC(=O)Cn1cnc2c(cnn2-c2ccc(F)cc2)c1=O | 3.59% | 29.1 µM [rising, single point] | 
O=C1OCCC1Sc1ncnc2sccc12 (stereo not drawn) | -43.5% | 20.6 µM [falling, single point] | 29.1 µM [falling, single point]
CCCCc1nnc(NC(=O)CSCc2cc(=O)n3c(C)csc3n2)s1 |  | 16.4 µM [rising, single point] | 
O=S(=O)(c1ccccc1)N1CCN(CC(O)COc2ccc3c(c2)CCC3)CC1 (stereo not drawn) | -13.5% |  | 4.11 µM [falling, single point]
COc1cccc(C(=O)CC(C#N)c2ccc(F)cc2)c1 (stereo not drawn) | 23.4% |  | 

In the list so far, nine have an NH in an aromatic ring:
Compound | cell number change | AC50 [1] | AC50 [2]
O=C(CSc1nnc(Cc2cc(=O)[nH]c(=O)[nH]2)n1-c1ccc(Cl)cc1)N1CCc2ccccc21 | 3.35% | 6.51 µM [rising, single point] | 
O=c1[nH]c(SCc2cccc(Cl)c2)nc2[nH]ncc12 | -12.8% |  | 0.0058 µM [falling, full curve, poor fit]
O=C(c1n[nH]c2ccccc12)N1CCCCC1 |  | 0.082 µM [falling, full curve, poor fit] | 
O=c1[nH]c(NCc2ccccc2)nc2c1CCCC2 | 31.2% |  | 29.1 µM [rising, single point]
COc1ccc(CN2CCC(c3nc4ccc(Cl)cc4[nH]3)CC2)cc1 | 16.6% | 0.00517 µM [falling, full curve, poor fit] | 
Cc1nc(N2CCOCC2)[nH]c(=O)c1CCC(C)C | -7.82% | 23.1 µM [falling, single point] | 
CCCCCn1c(=O)[nH]c2cc(C(=O)N3CCN(Cc4ccc5c(c4)OCO5)CC3)ccc2c1=O | -34.6% |  | 1.3 µM [falling, full curve]
O=c1[nH]c(=O)n(Cc2ccccc2)c2nc(-c3cccs3)n(CCO)c12 | -47% | 16.4 µM [falling, partial curve] | 14.6 µM [falling, single point]
CCCOc1ccc2[nH]c(C(=O)N/N=C/c3cc(OC)c(OC)c(OC)c3)cc2c1 | -32% | 14.6 µM [falling, partial curve] | 
